Publication PMC9979339 (ACS Omega, 2023)
Marks after values point to notes of the source that are not given here.

Amino acid sequences for entries named in this document (tags omitted). Residues count along the entry.
UniProt Q03311, 30-603: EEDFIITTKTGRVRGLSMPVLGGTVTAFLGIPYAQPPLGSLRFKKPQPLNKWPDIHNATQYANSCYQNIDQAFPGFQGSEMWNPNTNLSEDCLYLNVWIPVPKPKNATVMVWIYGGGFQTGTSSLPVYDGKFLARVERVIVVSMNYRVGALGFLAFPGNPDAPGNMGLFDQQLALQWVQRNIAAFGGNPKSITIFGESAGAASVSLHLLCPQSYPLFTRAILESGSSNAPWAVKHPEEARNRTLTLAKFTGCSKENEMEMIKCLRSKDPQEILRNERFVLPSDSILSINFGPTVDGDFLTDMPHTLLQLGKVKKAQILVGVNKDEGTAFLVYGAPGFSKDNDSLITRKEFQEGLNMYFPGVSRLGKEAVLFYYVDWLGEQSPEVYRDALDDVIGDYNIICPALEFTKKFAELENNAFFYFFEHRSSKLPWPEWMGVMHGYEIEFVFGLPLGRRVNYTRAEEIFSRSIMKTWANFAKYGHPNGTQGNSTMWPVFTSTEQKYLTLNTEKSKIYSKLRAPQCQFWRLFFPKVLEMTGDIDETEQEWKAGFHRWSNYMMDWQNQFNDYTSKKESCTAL

Biological target: BuChE in the brain (Mus musculus, UniProt Q03311)
Test: Ex vivo BuChE activity in brain homogenate after NORT
Set-up: species or system mice
Settings: donepezil 2 mg/kg plus scopolamine, control = 100, n = 3

With `COc1cc2c(cc1OC)C(=O)C(CC1CCN(Cc3ccccc3)CC1)C2` (stereo not shown) [donepezil, reference compound] the “BuChE inhibition (%) in the brain” value was 55 ± 4.2 ^d %.
